These results are taken from publication PMC3818382.

Sequences of proteins named here, by UniProt entry; tags and fusion partners are left off. A change or cut given only in a name is not applied to a line headed by its entry.
UniProt P16220: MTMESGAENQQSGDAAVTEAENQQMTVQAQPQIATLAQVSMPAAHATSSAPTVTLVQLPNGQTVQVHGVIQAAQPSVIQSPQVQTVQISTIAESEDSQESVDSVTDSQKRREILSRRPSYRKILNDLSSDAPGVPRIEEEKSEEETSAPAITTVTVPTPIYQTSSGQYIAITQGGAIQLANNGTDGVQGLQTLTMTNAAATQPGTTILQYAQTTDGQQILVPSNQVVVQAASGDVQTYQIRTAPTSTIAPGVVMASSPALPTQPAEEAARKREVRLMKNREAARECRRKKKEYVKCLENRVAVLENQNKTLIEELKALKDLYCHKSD

The exact form of at least one protein or probe is not confirmed. Where cells or extracts were used, other partners may take part. For some assays here: A negative result means that nothing was seen under these conditions. For some assays here: At least one verdict rests on a figure or table, not on a statement of the authors. For some assays here: Protein sequences can lack the tags named with them. For some assays here: The comparison behind a weaker result is the experiment's own reference, which may not be listed here.

Data set [1] addresses CREB1 (UniProt P16220). Briefly: EMSA with CREB1 antibody (inhibits complex). The conditions noted are these: nuclear extract, also competed by unlabelled CREB1 and DMBT1 probes; 100 fmol biotinylated dsDNA probe, 5 ug nuclear extract, 1 ug poly d(I)-d(C), 30 min; 50-fold competitor; 6% polyacrylamide gel; protein in an extract; label: biotin (labelled probe), unlabelled as competitor. In general terms: In EMSA bound probe runs differently from free probe, usually more slowly.

Data set [2] deals with T1, ATF-2 (CRE-BP1) (UniProt P15336).
T1 sequence (looked up, limits assumed): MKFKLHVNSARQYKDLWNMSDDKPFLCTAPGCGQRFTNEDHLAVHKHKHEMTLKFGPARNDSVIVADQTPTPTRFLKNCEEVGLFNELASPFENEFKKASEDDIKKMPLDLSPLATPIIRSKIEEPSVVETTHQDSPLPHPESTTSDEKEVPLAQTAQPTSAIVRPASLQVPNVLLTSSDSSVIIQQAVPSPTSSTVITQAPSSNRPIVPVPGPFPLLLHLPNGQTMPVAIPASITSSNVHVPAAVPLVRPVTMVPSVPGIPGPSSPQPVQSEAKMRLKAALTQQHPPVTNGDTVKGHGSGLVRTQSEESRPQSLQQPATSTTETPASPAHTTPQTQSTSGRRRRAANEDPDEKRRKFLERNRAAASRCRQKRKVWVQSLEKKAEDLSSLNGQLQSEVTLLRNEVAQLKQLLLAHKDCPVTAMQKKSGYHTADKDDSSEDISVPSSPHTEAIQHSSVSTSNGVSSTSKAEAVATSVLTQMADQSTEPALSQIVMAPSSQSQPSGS
The data set can be described thus: EMSA with ATF-2 antibody (signal diminished) and ATF-2 siRNA. The following applies: DLD-1 nuclear extract, siRNA slightly decreased the complex; 100 fmol biotinylated dsDNA probe, 5 ug nuclear extract, 1 ug poly d(I)-d(C), 30 min; 50-fold competitor; 6% polyacrylamide gel; protein in an extract; label: biotin (labelled probe), unlabelled as competitor.

The target in data set [3] is CREB1 (UniProt P16220). The data set can be described thus: EMSA with CREB1 antibody (signal diminished) and CREB1 siRNA. The following applies: DLD-1 nuclear extract, siRNA nearly abolished the complex; 100 fmol biotinylated dsDNA probe, 5 ug nuclear extract, 1 ug poly d(I)-d(C), 30 min; 50-fold competitor; 6% polyacrylamide gel; protein in an extract; label: biotin (labelled probe), unlabelled as competitor.

Data set [4] has as its target T1, ATF-2 (CRE-BP1). Briefly: EMSA, competition. The following applies: nuclear extract, labelled G probe clearly weaker, 50-fold unlabelled G competes less than A; 100 fmol biotinylated dsDNA probe, 5 ug nuclear extract, 1 ug poly d(I)-d(C), 30 min; 50-fold competitor; 6% polyacrylamide gel; protein in an extract; label: biotin (labelled probe), unlabelled as competitor.

The target of data set [5] is CREB1 (UniProt P16220). Briefly: EMSA, competition. The following applies: nuclear extract, labelled G probe clearly weaker, 50-fold unlabelled G competes less than A; 100 fmol biotinylated dsDNA probe, 5 ug nuclear extract, 1 ug poly d(I)-d(C), 30 min; 50-fold competitor; 6% polyacrylamide gel; protein in an extract; label: biotin (labelled probe), unlabelled as competitor.

In data set [6] the target is T1, ATF-2 (CRE-BP1). The data set can be described thus: competition with a labelled probe. The conditions noted are these: DLD-1 nuclear extract, 100 fmol biotinylated dsDNA probe, 5 ug nuclear extract, 1 ug poly d(I)-d(C), 30 min, 50-fold competitor, 6% polyacrylamide gel, protein in an extract, label: none (unlabelled competitor).
Data set [7] has as its target CREB1 (UniProt P16220). The data set can be described thus: competition with a labelled probe. The following applies: 50-fold excess did not inhibit complex on DMBT1 A probe, DLD-1 nuclear extract; 100 fmol biotinylated dsDNA probe, 5 ug nuclear extract, 1 ug poly d(I)-d(C), 30 min; 50-fold competitor; 6% polyacrylamide gel; protein in an extract; label: none (unlabelled competitor).

In the case of “AGAGATTGCCTGACGTCAGAGAGCTAG (double strand) [CREB1 consensus probe]”, the binding result with CREB1 [1] is recorded as “binds”.

Take “CCTGCTAACGTAACCAAATTGCTA (double strand) [DMBT1 probe rs2981804 A (risk allele)]”: the binding result with ATF-2 (CRE-BP1) [2] and with CREB1 [3] was “binds” throughout.

On to “CCTGCTAACGTAGCCAAATTGCTA (double strand) [DMBT1 probe rs2981804 G (protective allele)]”, for which the binding result with ATF-2 (CRE-BP1) [4] and in the data set with CREB1 [5] was “binds more weakly” throughout.

For “CTTAGTTACGTAATAATTGT (double strand) [ATF-2 probe]”, the binding result with ATF-2 (CRE-BP1) [6] (50-fold excess reduced complex on DMBT1 A probe) is “binds”.

Consider “GATCCTTCTGGGCCGTCCTAGATC (double strand) [unspecific competitor probe]”, for which the binding result in the data set with ATF-2 (CRE-BP1) [6] (50-fold excess did not inhibit complex on DMBT1 A probe) and in the data set with CREB1 [7] was “no binding” each time.
